{
  "source": "patent US7883730B2",
  "about": "“Rumen protected lysine” (Zinpro Corporation, priority 2007, dated 2011)",
  "system": "Lactating Holstein Dairy Cows",
  "test": "Feeding evaluation: lactation responses to N-Benzylidene-L-Lysine",
  "format": "in vivo",
  "details": "control diet plus 40 g Lys from N-Benzylidene-L-Lysine, 14 days",
  "description": "Evaluation of Feeding N-Benzylidene-L-Lysine Using Lactating Holstein Dairy Cows\nAll cows received the same base diet. Cows were assigned to one of two treatments: (1) control, (2) control+N-Benzylidene-L-Lysine (TrTA). N-Benzylidene-L-Lysine was supplemented at a rate to supply 40 g of Lys when cows consumed 53.0 lb dry matter/d. The control diet was formulated to be deficient of lysine. “P” refers to the probability value (p-value).",
  "data": [
    {"smiles": "NCCCC[C@H](N=Cc1ccccc1)C(=O)O", "note": "[Trt A, N-Benzylidene-L-Lysine]", "values": [
      {"measurement": "DMI", "value": 53.1, "unit": "lbs/d"}
    ]}
  ]
}
